Measured values: patent publication US8110399B2, “Stem cells of the islets of langerhans and their use in treating diabetes mellitus” (The General Hospital Corporation, priority 1999, dated 2012)
For at least one compound, name, drawing or mass did not settle the structure.

Test system: nestin-positive NIPs
Assay: Intracellular Ca2+ concentration in single isolated NIPs
Assay type: cell-based, human
Settings: forskolin, FIG. 23 panel B
Procedure: The application of GLP-1 amide to single, isolated […] elevates levels of intracellular Ca^2+ concentration ([Ca^2+]i). Cells were plated onto gridded coverslips to permit subsequent immunohistochemical staining of the same cells to test for nestin expression.

## C=C[C@@]1(C)CC(=O)[C@]2(O)[C@@]3(C)[C@@H](O)CCC(C)(C)[C@@H]3[C@H](O)[C@H](OC(C)=O)[C@@]2(C)O1 [forskolin]
  [Ca2+]i levels: effects of GLP-1 reproduced: reproduced
